Laboratory results: patent publication US20160263110A1 (priority 2013, published 2016)

System: B6SJL-Tg SOD1G93A female mice
Details: overall significance level 0.05

## Cc1ccc(NC(=O)c2ccc(CN3CCN(C)CC3)cc2)cc1Nc1nc(-c2cccnc2)cs1 [masitinib, 4-(4-methylpiperazin-1-ylmethyl)-N-[4-methyl-3-(4-pyridin-3ylthiazol-2-ylamino)phenyl]benzamide]
30 mg/kg/day (MASI 1)
  Significant? onset curves, versus CTRL: Yes
100 mg/kg/day (MASI 2)
  Significant? onset curves, versus CTRL: Yes

Read-outs that look alike come from different tables or passages of the source.
